Measured values published in paper PMC9342608, “The OsEIL1‐OsERF115‐target gene regulatory module controls grain size and weight in rice”.

System: MBP-OsERF115 (Oryza sativa (japonica cv. Nipponbare))
Test: EMSA
Conditions: EMSA/Gel-Shift Binding Buffer (Beyotime GS005), 30 min at room temperature, 6% native PAGE; salt and pH not stated; recombinant protein; protein details: MBP, Ni-NTA purified (pMCSG7); label: 5' biotin on strand 1

“GTATGTATCTACGGTGAGGCGGCGGCGGCGGAGGAGGAGGAGGA (double strand) [OsGW2 probe (GCC box)]”: binds.

“GAGGTATTGTTGGGATTCGCCGCCTGCTGCTCGTCGTCGTCG (double strand) [OsGS6 probe (GCC box)]”: binds.

For at least one entry, the source does not settle the construct or the ends of the probe.
